Assay results taken from article PMC10512220.
These are yes or no findings as the source states them, for the method shown. Binding seen in cells or lysates may run through a third protein. Here binding means that the protein was enriched with, or labelled near, the bait; the list need not be complete. For part of these data: No binding means not detected with the bait. Where a sequence is shown, tags or fusion partners need not be part of it.

T1: GUL-1-GFP (Neurospora crassa) (UniProt Q1K842)
T1 sequence: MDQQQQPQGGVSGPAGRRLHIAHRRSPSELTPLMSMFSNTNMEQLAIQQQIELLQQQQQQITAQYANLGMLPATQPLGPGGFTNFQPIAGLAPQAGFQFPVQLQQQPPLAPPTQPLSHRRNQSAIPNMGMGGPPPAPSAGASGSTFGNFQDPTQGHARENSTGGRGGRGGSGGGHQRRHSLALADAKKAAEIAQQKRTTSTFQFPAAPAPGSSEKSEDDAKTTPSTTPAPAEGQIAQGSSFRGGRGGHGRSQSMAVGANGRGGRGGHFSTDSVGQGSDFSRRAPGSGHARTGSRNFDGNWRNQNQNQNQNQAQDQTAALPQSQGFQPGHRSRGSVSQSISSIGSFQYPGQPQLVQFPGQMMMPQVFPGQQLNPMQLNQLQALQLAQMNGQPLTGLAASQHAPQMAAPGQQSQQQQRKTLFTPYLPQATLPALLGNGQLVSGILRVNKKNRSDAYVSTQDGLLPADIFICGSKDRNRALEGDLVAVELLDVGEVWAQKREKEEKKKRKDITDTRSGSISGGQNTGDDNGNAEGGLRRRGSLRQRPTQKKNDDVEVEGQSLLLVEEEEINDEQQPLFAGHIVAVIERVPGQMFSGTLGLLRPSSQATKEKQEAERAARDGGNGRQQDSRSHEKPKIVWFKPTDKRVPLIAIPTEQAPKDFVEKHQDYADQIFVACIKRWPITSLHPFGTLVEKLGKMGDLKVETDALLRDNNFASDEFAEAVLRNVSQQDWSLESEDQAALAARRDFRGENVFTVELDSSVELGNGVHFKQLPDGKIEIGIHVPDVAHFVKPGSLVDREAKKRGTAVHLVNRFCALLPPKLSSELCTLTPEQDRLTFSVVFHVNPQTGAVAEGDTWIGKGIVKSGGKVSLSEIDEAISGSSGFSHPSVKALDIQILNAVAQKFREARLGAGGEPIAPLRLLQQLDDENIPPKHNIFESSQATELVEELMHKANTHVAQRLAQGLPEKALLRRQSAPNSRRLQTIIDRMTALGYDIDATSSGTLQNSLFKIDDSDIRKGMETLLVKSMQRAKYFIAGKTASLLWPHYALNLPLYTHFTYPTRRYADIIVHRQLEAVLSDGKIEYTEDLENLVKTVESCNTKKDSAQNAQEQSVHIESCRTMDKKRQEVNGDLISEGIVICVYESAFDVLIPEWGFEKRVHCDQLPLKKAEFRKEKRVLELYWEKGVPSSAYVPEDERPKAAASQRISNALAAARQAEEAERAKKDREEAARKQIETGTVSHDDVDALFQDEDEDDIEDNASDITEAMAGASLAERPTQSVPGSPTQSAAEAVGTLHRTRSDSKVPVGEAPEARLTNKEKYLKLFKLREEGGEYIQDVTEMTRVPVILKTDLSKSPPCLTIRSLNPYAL


These molecules were tested against T1, GUL-1-GFP (Neurospora crassa) (assay: affinity purification with mass spectrometry; GUL-1-GFP captured from cleared crude N. crassa extract on GFP-Trap magnetic agarose beads overnight at 4°C; washed with 25 mM Tris HCl pH 7.5, 150 mM NaCl, 1.5 mM MgCl2, 1% NP-40, 1 mM EDTA; LC-MS-MS, label-free quantification against a strain expressing GFP alone; three biological replicates; cultures under standard growth conditions, without NH4NO3 for the last 1 h, or with 10^-5 M Nikkomycin Z for the last 1 h).

| binding | Molecule |
| --- | --- |
| binds | VTS-1 (NCU00311) (protein, UniProt Q7RZQ3 1-620) MLNMSNIMSNRNSTPEASNVSSLRPPSSRAIGSNHGLRASADVAALTGAQAAASRIRPSSDFYGQPQSGQVQGNAELDPQDKLAQQWIADIDQYETTLEEMAAATLDQDFKDELSAIEQWFRVLSEAERTAALYALLQQTTQVQIRFFIQVLQQMGKNHPMSGVLSPANFDKDPMSSRLSDAMGKLEVGSARNSLARPSGGANKRHSGLDQTTINTMFPDAVAAIATEKAKFTQQTGNPPPSNRNSLVDNRNSLAAPTVSGPKDDINGQNPASPWGPSDTSRPKSSTGQTPMGQFVQPPPSAGGLRSPRPPQLSSNTNIQSTTLTAAEPQLTELPLLSPYTSSGNWASMVNTPMVPTFGQTQGNNADMVANATAMKLAALSTVNNRFALDDARRYRRARSNDGAPGQSHAQHPLSPGPQGIPSTNVVMINEHGQVLSHDHVLALQQQQQQGLQQGLGGFGGHRSRPTSPGIAMPNYGSALQFTSPQNNGFLSAYDGGAPGLINNGLVPMMGQFNLGGHHAEGYLSDHSEINRGRSPRGRRGSSKPPEDPTDPTLLQDIPSWLRSLRLHKYTDNLKDMKWTDLIELDDKQLEERGVNALGARRKMLKVFEQVKEAKKEGKI |
| no binding | ADV-1 (NCU07392) (protein, UniProt Q9P326 1-696) MSTQSPNHHEDITKTSSVNMTTTTTTTKTKAAAKAGTNAAPKQKTQMHRRSRTGCYTCRLRRKKCDEGSPMCTACKHLGLCCEYKRPMWWSNNDARRKQKDEIKMIIKRKKLSEKSSHTIQTSINTPPGLSHSLPTSATFSDPLDRNRSASIDSHFGFNFNSPQHGQDFAAFATPQIHVNGEYMFPPFSPYEIDMKTERQIFINDIPTLRESTVSTFSTYQTPPPPGTILPSFPLEGEWTEQVFSERRESLTEETFNANFFDFACDPAMASSQVAIELDDGDQKLLDHFVQHVLPTIFPILESNQHGSISSELVLPSLANNKGYLHCCLSIAAQHFKSTMGIQNEEIDNDIMRHRYATITWLCEALNRDENHQPILDATLGLIFFQCIVGRPEDTLPDIPWHQHFQAVVSLVQKLDLAGLVSDITKPLAHTPFNMTLTSWIDILGATMLGSSPLFAHTYRNKHLSINNHSLGLRELMGCEDRVMYLISEIACLESLKNQGMDDITLCQHVRGLGDEISNTEVNEGTLVEPYNANGTLSPKQLSKNITAAFRLAARIYLCSLVPGFYPAQPSCMGLVEKLTAVLQLIPSGVNGYDRSLTWVYLIGGSVSVPGSSFRDFFENRVAQLGDVANSGSFGRMTVLLREVWLQYEAILAAAEAAAGTSSLSSETPQQQQQVNAHYVRWREVMQIKGWDYLLI |

The next lines start with the molecule.

| Molecule | binding |
| --- | --- |
| eIF3 subunit (NCU02813) (protein, UniProt Q7SEK1 1-434) MATPQLIFVDGTFAELAQEMADFVQVGEQVQPLLEQDKREDALDLIVKASHSLNAAPEKDFTPAYNLLIHLVLQSEEPKKYLPTLCANLLKPITSSPTHGFTLASNALTTIFNLLDKSNPLRFNVFMQIVRFIRQNSQFDLLKPRLKNVEGWLQEWKSDSESQRKLYVEVSDAANDGGDQEESYFYLLKALATFDRDNQDEVASDEAQKLSLRALRMAISSPTRFDFNDLRSLPSVHALSDSHPVYSQLLDIFTEQDLEDYNDFRDEHQGWIENEKLDHEKLQRKMRLLTFASLAASTPNREIPYASIAKALQIPDEDVEMWTIDVIRSKLVEGRLSQKQKVFLVHRTTYRVFGEKQWRELGTRVDQFKTVVDRLVGVVRKAQTDVEAQREREQQELERKLANAGLGESEQRGGNRGGRTGGARQTRQRTDDDD | binds |
| eIF3 subunit (NCU09707) (protein, UniProt Q7S2R9 1-237) MNGEDPQERPDFIRAIINGLERYNPEAAGTLEAYLTQQCEEKFCDCNANRALLKLYQLNPDRIKDEVITNILVKAMTQFPSPQFDLALHLLSPSQSNPGPNSSSELTEAVSKLRALNAQLEGAEYARFWATLDSDDLYADLTTDIAGFEDMIRVRIAQLVGQSYREIQFPVLESWLGLNNSEATTQFITETCGWKVEGDVVQIPKNADNEARKAEIREDVNVDMFARVIKRSWEESA | binds |
| eIF3 subunit (NCU07929) (protein, UniProt Q7S9Y9 1-359) MAEVQKDAPIKSVQVEALVVMKIVKHCSTSFPTVATGSIVGMDNNGAIEVTNSFQFPSVDVSSSDSHSDASSLAAAAPRAKANIVYQNEMIRHLKEVNVDANNVGWYTSATMGNFINMSFIENQYHYQKENEKTVALVHDVSRSSQGALSLRAFKLSPEFMTAYKEAKFTTESLRNSKLTYKDIFVELPVNVHNSHLLTSFLHQIPAPPKSAEIPMPASLDDIRRDPVQIPAHPGFESLDLSIDPFLEKTCDLLLDSIESHYTDLNNHQYYQRQLTREQFKITQWQAKRKAENAARLAAKQSPLPEDEWQRLFKLPQEPSRLEGMLNARQVDQYARQVDAFTANITAKMFAVRGNLLPE | binds |

Molecular target: T1, GUL-1-GFP (Neurospora crassa)
Assay: as above
Remark: another data set of the same source

| binding | Molecule |
| --- | --- |
| binds | transcription elongation factor (NCU02563) (from UniProt Q7SHQ2) |
| binds | MAK-1 (NCU09842) (from UniProt Q7RVR1 1-413) (enzyme) |
| binds | SNF-5 (NCU02076) |
| binds | PP2A [PPH-1 (NCU06630)] (from UniProt P48580 1-327) (enzyme) |

Second part, the molecule before the results:

| Molecule | binding |
| --- | --- |
| SCP-160 (NCU03897) (from UniProt V5IM50) | binds |
| PUB (NCU07874) (from UniProt Q7SAS0) | binds |
| glycosyl-hydrolase GH13-9 (NCU05429) (from UniProt V5IQZ6) (enzyme) | binds |
| MAK-2 (NCU02393) (from UniProt V5IKE7 1-352) (enzyme) | binds |
| C2H2-type zinc-finger domain transcription factor (NCU07952) (from UniProt Q7S932) | binds |
| JSN-1 (NCU06199) (from UniProt Q7SBC4) | binds |
